Publication PMC4125160, “Neurotoxicity and Mode of Action of N, N-Diethyl-Meta-Toluamide (DEET)” (PLoS ONE, 2014)

Experiments:
[1] = tested on: sodium channels in neonatal rat cortical neurons; assay: Patch clamp of rat cortical neurons, sodium currents; assay type: cell-based
Procedure: Rat cortical neurons (purchased from Lonza, Walkersville, MD, USA) were placed on poly-lysine coated glass cover slips in 35 mm dishes, and cultured in primary neuron basal medium with added 2% neural grown factor and 1% glutamine (from Lonza). The medium was half changed every 3 days, and the cells were used at 6–12 days. The neurons had dendrites and axons and the diameters of the somata were about 15–20 µm. Cells were cultured on cover slips and were immersed in 35 mm Petri dishes filled with room temperature extracellular saline. Patch pipettes were pulled from borosilicate glass capillaries with filament (BF150-86-10, Sutter Instrument, Novato CA, USA) on a P-1000 Flaming/Brown micropipette puller (Sutter Instrument). Extracellular solution was the same regardless of the target ion channel and contained: 140 mM NaCl, 5 mM KCl, 2 mM MgCl2, 2 mM CaCl2, 10 mM glucose, and 10 mM HEPES (pH = 7.4). Intracellular patch solution for potassium channel recordings consisted of: 140 mM KF, 10 mM NaCl, 2 mM MgCl2, and 10 mM HEPES (pH = 7.2). Intracellular patch solution for sodium channel recordings consisted of: 140 mM CsCH3SO3 10 mM NaCl, 2 mM MgCl2, 10 mM HEPES (pH = 7.2), where CsCH3SO3 was used to eliminate potassium currents during sodium channel analysis. The patch electrodes had resistances of 5–7 MOhms. […]

Aedes aegypti = assay: Topical toxicity bioassay on adult females; assay type: in vivo; settings: LD50 with DEET alone/LD50 with DEET + PBO
Procedure: Topical toxicity bioassays on adult female mosquitoes were performed based on the method of Pridgeon et al.. Briefly, insects were chilled on ice for 3 min, during which the appropriate volume (200 nL for mosquitoes, 1 µL for Musca) of chemical (dissolved in 95% ethanol) was applied onto the abdomen using a handheld Hamilton microapplicator. For each inhibitor, five doses were applied to groups of ten insects each and repeated three times. An ethanol-only treatment was included in each experiment as a negative control. Insects were transferred into a holding chamber post-treatment and supplied with free access to sugar water for the duration of the experiment. […] Three LD50 values were obtained and the mean LD50 value was calculated and used for statistical analysis.
For all toxicity assays, control mortality was corrected for using Abbots formula [19]; where corrected percent mortality = (% alive in control–% alive in treated) /% alive in control.

SMILES: CCN(CC)C(=O)c1cccc(C)c1 [DEET, N, N-diethyl-meta-toluamide]
- Hill slope fold greater than lidocaine and toluene [1]: 7- to 10 fold
- fold less active than lidocaine [1]: ca. 30 fold
- SR (synergism ratio) (Aedes aegypti): 1.0
